Test results published in PubChem BioAssay AID493014 (National Center for Advancing Translational Sciences (NCATS), 2011).
Screen size: about 340,000 compounds; about 170 (0.05%) were called active. Inconclusive results, whose numbers are uncertain, are shown with a selection of clear calls. Calls come from the whole dose curve; as a rule, active = well fitted inhibition curve with a large enough effect in the signal ratio, with a control signal flat (not every such curve was filed as active); inconclusive = small, poorly fitted or top-dose-only effect, or effect the other way, or a change in a side signal; inactive = flat fitted curve, though single readings scatter; the % refers to the signal ratio. Potencies beside an inconclusive call are fits to weak or partial responses and may not hold up.

Assay: qHTS Assay to Find Inhibitors of Chronic Active B-Cell Receptor Signaling;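 for activity change, negative = inhibition: plate controls were basal doxycycline-induced cells for no effect and cells given 10 µM MG132 for full effect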
Settings: ABC-DLBCL IkBa-CBG/CBR reporter, luminescence ratio (green luciferase fused to IkBa over red control in TMD8 lymphoma cells), 4 h; activity change, negative = inhibition: at 46.1 µM (top of the series)
Procedure, shortened: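 Concentration-response series (up to 46 uM) were applied to TMD8 dual-reporter cells for 4 h at 37C with doxycycline. Green/red ratio, after filter-overlap correction, defined %Activity; red signal alone was normalised to basal cells and zero luminescence.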
Potency is the fitted concentration of half-maximal effect.

Q: With `O=C(NCc1ccccc1)N1CCN(c2ccccc2)CC1` as the molecule, how does the activity change, negative = inhibition read?
A: inactive

Q: With `CCOC(=O)C1CCCN(C(=O)CN2C(=O)/C(=C/c3ccc(OC)cc3)Oc3ccccc32)C1` (stereo not drawn) as the molecule, how does the activity change, negative = inhibition read?
A: inactive

Q: For `CC12CCC(=O)C=C1CCC1C2C(=O)CC2(C)C1CC[C@]2(O)C(=O)CO` (stereo partly drawn), which activity change, negative = inhibition is on record?
A: inactive

Q: For `CC(=O)C1=C(O)C(=O)N(C)C1c1ccccc1[N+](=O)[O-]` (stereo not drawn), which activity change, negative = inhibition is on record?
A: inconclusive: 20.2%

Q: Which activity change, negative = inhibition does the source give for `COC(=O)c1ccc(NC(=S)NC(=O)c2cc(-c3ccccc3)nc3ccccc23)cc1` here?
A: inconclusive: 0.503%

Q: With `O=C(c1ccc(Cl)cc1)N1CCC(O)(CSc2ccc(Cl)cc2Cl)CC1` as the molecule, how does the Potency read?
A: inconclusive: 18.4 µM [rising, partial curve, poor fit]

Q: For `COc1ccc2c(c1)C(=C(C#N)C#N)C(=O)N2CCc1ccccc1`, which activity change, negative = inhibition is on record?
A: inconclusive: -28.4%

Q: With `CNc1nnc(-c2cc3ccccc3oc2=O)s1` as the molecule, how does the Potency read?
A: inconclusive: 4.47 µM [falling, full curve]

Q: Which activity change, negative = inhibition does the source give for `COC(=O)c1cc(O)cc(OC)c1Oc1cc(C)cc(O)c1C(=O)O` here?
A: inconclusive: 5.39%

Q: With `O=C(N/N=C/c1cccc(Oc2ccccc2)c1)c1cccc(Br)c1` as the molecule, how does the activity change, negative = inhibition read?
A: inactive

Q: Which activity change, negative = inhibition does the source give for `O=C1CC(N2CCN(c3nc4ccccc4s3)CC2)C(=O)N1c1ccc(F)cc1` (stereo not drawn) here?
A: inconclusive: -1.61%

Q: With `CCCNc1nc(OCC(F)(F)F)nc(OCC(F)(F)F)n1` as the molecule, how does the activity change, negative = inhibition read?
A: inactive

Q: For `N#Cc1c(NC(=O)CN2CCOCC2)oc(-c2ccccc2)c1-c1ccccc1`, which activity change, negative = inhibition is on record?
A: inconclusive: 2.74%

Q: Which activity change, negative = inhibition does the source give for `Cc1csc(NC(=O)CSc2nnc(-c3ccoc3C)n2CCc2ccccc2)n1` here?
A: inconclusive: 3.88%

Q: Which activity change, negative = inhibition does the source give for `COc1ccc(C(=O)On2c(-c3ccc(Br)cc3)nc3ccccc3c2=O)cc1` here?
A: inconclusive: -28.5%

Q: Which activity change, negative = inhibition does the source give for `CCC1CCc2sc(C(=O)NCc3ccccn3)cc2C1` (stereo not drawn) here?
A: inconclusive: 13.2%

Q: Which activity change, negative = inhibition does the source give for `COc1cc(C2=NOC(C(=O)Nc3ccc(C(C)=O)cc3)C2)cc(OC)c1OC` (stereo not drawn) here?
A: inactive

Q: Which activity change, negative = inhibition does the source give for `O=C(O)COc1ccc(/C=N/NC(=O)c2ccc(-c3csc(Nc4ccc(Cl)cc4)n3)cc2)cc1` here?
A: inconclusive: 347%

Q: With `COc1ccc(C(=O)N2CCc3cc(OC)c(OC)cc3C2c2ccc(OC)c(OC)c2)cc1` (stereo not drawn) as the molecule, how does the activity change, negative = inhibition read?
A: inconclusive: -18.3%

Q: With `COc1ccc(-n2c(CCc3ccccc3)n[nH]c2=S)cc1` as the molecule, how does the activity change, negative = inhibition read?
A: inactive

Q: For `CCOC(=O)C1CCCN(C(=O)c2ccc3[nH]c4c(c3c2)CC(C)CC4)C1` (stereo not drawn), which activity change, negative = inhibition is on record?
A: inconclusive: -10.9%

Q: With `COc1ccc(NS(=O)(=O)c2ccc3c(c2)oc(=O)n3C)cc1Cl` as the molecule, how does the activity change, negative = inhibition read?
A: inactive

Q: With `Cc1onc(-c2c(Cl)cccc2Cl)c1C(=O)N1CCCc2ccccc21` as the molecule, how does the Potency read?
A: inconclusive: 32.6 µM [falling, single point]
